Assay results as given in PMC10750294.
These are yes or no findings as the source states them, for the method shown. Binding seen in cells or lysates may run through a third protein. Here binding means that the protein was enriched with, or labelled near, the bait; the list need not be complete.

Sequences of proteins named here, by UniProt entry; tags and fusion partners are left off.
UniProt P06748: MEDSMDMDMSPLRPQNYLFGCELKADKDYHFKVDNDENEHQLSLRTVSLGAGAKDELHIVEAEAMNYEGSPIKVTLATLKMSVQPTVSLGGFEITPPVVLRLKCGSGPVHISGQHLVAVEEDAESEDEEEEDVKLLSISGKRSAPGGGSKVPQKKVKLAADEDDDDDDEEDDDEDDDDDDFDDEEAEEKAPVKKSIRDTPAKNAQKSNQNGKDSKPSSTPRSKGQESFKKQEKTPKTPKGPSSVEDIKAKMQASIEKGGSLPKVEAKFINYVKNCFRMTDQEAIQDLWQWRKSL

Target: T1, Mesencephalic astrocyte-derived neurotrophic factor (MANF) (human (endogenous in villi tissue of patients)) (UniProt P55145)
T1 sequence: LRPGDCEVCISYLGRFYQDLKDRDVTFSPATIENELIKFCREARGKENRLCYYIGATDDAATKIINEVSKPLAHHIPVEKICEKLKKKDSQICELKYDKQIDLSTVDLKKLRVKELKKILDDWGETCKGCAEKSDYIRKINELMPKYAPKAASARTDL
Test: affinity purification with mass spectrometry; co-IP with the MANF antibody from villi of the URM group, SDS-PAGE, rapid silver staining, excised bands analysed by LC-MS/MS

Nucleophosmin 1 (NPM1) (from UniProt P06748 1-294)
binding: binds
